{"source": "PubChem BioAssay AID1224830 | NIAID, 2016", "aim": "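Regulators of TLR4 signalling towards TNF-alpha in macrophage-like cells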 (primary screen)", "cells": "human THP-1 monocytic leukaemia cells, TNF dual-luciferase reporter clone, PMA-differentiated to macrophage-like cells", "reagent": "siRNA pool against human genes, 50 nM", "duration": "LPS for 4 h, given about 3 days after siRNA transfection", "challenge": "bacterial LPS (TLR4 ligand), 10 ng/ml", "detection": "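Ratio of firefly to renilla light, scaled to the plate median and expressed as a robust z-score per replicate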", "scale": "TNF reporter robust z-score: higher = stronger TNF reporter response to LPS", "active means": "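a well is active when its z-score exceeds 2.8 or falls below -1.5; control wells carry no call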", "note": "In all, the deposit lists about 18,000 reagents; shown is a random part of them. About 2,900 of them (16%) were called active. 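Calls are made per well; low scores hint the gene aids the LPS response, high scores that it dampens it.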 A number with no mark means an inactive call. Repeated entries: four replicate wells of each siRNA pool. No sequences are given here."}
{"gene": "ING1", "TNF reporter robust z-score": "-1.55 (active)"}
{"gene": "ING1", "TNF reporter robust z-score": -0.32}
{"gene": "ING1", "TNF reporter robust z-score": -1.13}
{"gene": "ING1", "TNF reporter robust z-score": 0.89}
{"gene": "RUNX2", "TNF reporter robust z-score": "-1.9 (active)"}
{"gene": "RUNX2", "TNF reporter robust z-score": -1.49}
{"gene": "RUNX2", "TNF reporter robust z-score": "-1.69 (active)"}
{"gene": "RUNX2", "TNF reporter robust z-score": -1.2}
{"gene": "IRF7", "TNF reporter robust z-score": 0.74}
{"gene": "IRF7", "TNF reporter robust z-score": 0.91}
{"gene": "IRF7", "TNF reporter robust z-score": -0.29}
{"gene": "IRF7", "TNF reporter robust z-score": 1.87}
{"gene": "ALAS1", "TNF reporter robust z-score": -1.32}
{"gene": "ALAS1", "TNF reporter robust z-score": -1.45}
{"gene": "ALAS1", "TNF reporter robust z-score": 0.09}
{"gene": "ALAS1", "TNF reporter robust z-score": -0.44}
{"gene": "SLC9A4", "TNF reporter robust z-score": -0.18}
{"gene": "SLC9A4", "TNF reporter robust z-score": 0.1}
{"gene": "SLC9A4", "TNF reporter robust z-score": 0.46}
{"gene": "SLC9A4", "TNF reporter robust z-score": 0.55}
{"gene": "KBTBD12", "TNF reporter robust z-score": -0.07}
{"gene": "KBTBD12", "TNF reporter robust z-score": 0.39}
{"gene": "KBTBD12", "TNF reporter robust z-score": 0.68}
{"gene": "KBTBD12", "TNF reporter robust z-score": 0.71}
{"gene": "YIPF5", "TNF reporter robust z-score": 1.12}
{"gene": "YIPF5", "TNF reporter robust z-score": "2.98 (active)"}
{"gene": "YIPF5", "TNF reporter robust z-score": 0.85}
{"gene": "YIPF5", "TNF reporter robust z-score": 0.24}
{"gene": "FGF23", "TNF reporter robust z-score": -0.79}
{"gene": "FGF23", "TNF reporter robust z-score": 0.34}
{"gene": "FGF23", "TNF reporter robust z-score": -0.98}
{"gene": "FGF23", "TNF reporter robust z-score": 0.11}

Ordered by “TNF reporter robust z-score” (low to high): some entries from above
{"gene": "SLC9A4", "TNF reporter robust z-score": -0.18}
{"gene": "SLC9A4", "TNF reporter robust z-score": 0.1}
{"gene": "SLC9A4", "TNF reporter robust z-score": 0.46}
{"gene": "SLC9A4", "TNF reporter robust z-score": 0.55}
